Test results as given in PubChem BioAssay AID194 (DTP/NCI, 2004).
The list is a part of this screen's results and no random one: it gathers tests that were run many times, whatever their T/C, doses with no T/C, and many T/C values between a quarter and a half above the control. Further doses and runs are listed elsewhere. T/C gives the treated animals as a percentage of the vehicle group. Some doses have a count of surviving animals in place of a T/C: the source files T/C as zero there, which appears to mark a toxic dose or a test without result, not a measured value. Some survivor counts are full or nearly so, which does not show that the dose was tolerated: the source hardly ever lists a survival T/C far under the control, and the zero likely stands for such cases as well. Survivors were counted at the toxicity check, usually on the fifth day, unless a day is given; later deaths do not show. Schedule codes are those of the source, taken here to give the interval after Q, in days (D) or hours (H), and the number of doses after X. Some entries hold several experiments; their values stand side by side, smallest first. For survival time, the PubChem record calls one and a half times the control and up active, and a quarter to a half above the control has no call in these data; cut-offs in other NCI protocols can differ. Some T/C values carry the count of animals alive at the toxicity check (mostly the fifth day); without a count, all were alive then. Marks such as (2×) stand for listed records that agree.

Test system: BDF1 mice, B16 melanoma s.c., survival/tumor T/C
Experiment: NCI In Vivo Anticancer Drug Screen. Data for tumor model B16 Melanoma (subcutaneous) in B6D2F1 (BDF1) mice
Settings: T/C endpoint: median survival time, higher T/C = longer survival
Experimental: The antitumor activity of compounds was measured in mice bearing transplantable tumors. Survival or tumor size were measured and the results are expressed as the measurement made in the treated group (T) divided by the measurement made in the vehicle treated control group (C). The tumor model used in this assay is B16 Melanoma (subcutaneous) in B6D2F1 (BDF1) mice

[1] = dose: 16.0 mg/kg/injection, schedule: Q01DX009 (ip), vehicle: Klucel (hydroxypropylcellulose) (HPC)
[2] = dose: 60.0 mg/kg/injection, schedule: Q01DX001 (ip), vehicle: Klucel (hydroxypropylcellulose) (HPC)
[3] = dose: 25.0 mg/kg/injection, schedule: Q01DX009 (ip), vehicle: Klucel (hydroxypropylcellulose) (HPC)

CC1CCC(NC(=O)N(CCCl)N=O)CC1 (stereo unspecified)
T/C (dose: 1.0 mg/kg/injection, schedule: Q02DX009 (ip), vehicle: Klucel (hydroxypropylcellulose) (HPC)): 142 % of control
T/C (dose: 2.0 mg/kg/injection, schedule: Q01DX009 (ip), vehicle: Klucel (hydroxypropylcellulose) (HPC)): 92, 103, 105, 111 (2×), 115 % of control
survivor count (dose: 4.0 mg/kg/injection, schedule: Q01DX001 (ip), vehicle: saline with Tween-80): 9 of 10
T/C (dose: 4.0 mg/kg/injection, schedule: Q01DX009 (ip), vehicle: Klucel (hydroxypropylcellulose) (HPC)): 86 [5 of 6 alive], 96 [5 of 6 alive], 97, 105 [5 of 6 alive], 113, 117 % of control
T/C (dose: 4.0 mg/kg/injection, schedule: Q02DX009 (ip), vehicle: Klucel (hydroxypropylcellulose) (HPC)): 134 % of control
T/C (dose: 5.0 mg/kg/injection, schedule: Q04DX003 (ip), vehicle: other): 149 % of control
T/C (dose: 7.5 mg/kg/injection, schedule: Q01DX001 (ip), vehicle: Klucel (hydroxypropylcellulose) (HPC)): 126 % of control
T/C (dose: 8.0 mg/kg/injection, schedule: Q01DX009 (ip), vehicle: Klucel (hydroxypropylcellulose) (HPC)): 88, 111, 120 [5 of 6 alive], 139, 155, 163 % of control
T/C (dose: 10.0 mg/kg/injection, schedule: Q04DX003 (ip), vehicle: other, evaluated on day 58): 139 % of control [9 of 10 alive on day 58]
T/C (dose: 10.0 mg/kg/injection, schedule: Q04DX003 (ip), vehicle: other, evaluated on day 60): 141 % of control
T/C (dose: 15.0 mg/kg/injection, schedule: Q01DX001 (ip), vehicle: Klucel (hydroxypropylcellulose) (HPC)): 98, 105, 108, 117, 124, 126, 127, 133 % of control
T/C (dose: 16.0 mg/kg/injection, schedule: Q01DX001 (ip), vehicle: saline with Tween-80): 127 % of control
T/C [1]: 157 % of control
survivor count [1]: 6 of 6
T/C (dose: 24.0 mg/kg/injection, schedule: Q01DX001 (ip), vehicle: saline with Tween-80): 131 % of control
T/C (dose: 30.0 mg/kg/injection, schedule: Q01DX001 (ip), vehicle: Klucel (hydroxypropylcellulose) (HPC)): 103, 104, 119, 128, 134, 137, 162, 186 % of control
T/C (dose: 32.0 mg/kg/injection, schedule: Q01DX001 (ip), vehicle: saline with Tween-80): 127 % of control
survivor count (dose: 40.0 mg/kg/injection, schedule: Q01DX001 (ip), vehicle: other): 8 of 8
survivor count (dose: 40.0 mg/kg/injection, schedule: Q04DX003 (ip), vehicle: other): 10 of 10
T/C [2]: 107, 111 [5 of 6 alive], 142, 151, 173, 189 % of control
survivor count [2]: 6 of 6
survivor count (dose: 64.0 mg/kg/injection, schedule: Q01DX001 (ip), vehicle: saline with Tween-80): 8 of 10 and 10 of 10
survivor count (dose: 128.0 mg/kg/injection, schedule: Q01DX001 (ip), vehicle: saline with Tween-80): 7 of 10 and 10 of 10
survivor count (dose: 256.0 mg/kg/injection, schedule: Q01DX001 (ip), vehicle: saline with Tween-80): 0 of 10 and 10 of 10

Nc1nc(=S)c2[nH]cnc2[nH]1
survivor count (dose: 71.0 mg/kg/injection, schedule: Q01DX001 (ip), vehicle: alkali diluted with saline): 9 of 10
survivor count (dose: 107.0 mg/kg/injection, schedule: Q01DX001 (ip), vehicle: alkali diluted with saline): 8 of 10

CCO/C=C1\SC(=S)N(c2ccc(C(=O)O)cc2)C1=O
T/C (dose: 12.5 mg/kg/injection, schedule: Q01DX009 (ip), vehicle: Klucel (hydroxypropylcellulose) (HPC)): 125 % of control
T/C [3]: 146 % of control
survivor count [3]: 10 of 10

O=C1NC2(CCCCC2)C(=O)N1CCN(CCCl)CCCl
survivor count (dose: 12.0 mg/kg/injection, schedule: Q01DX009 (ip), vehicle: saline with Tween-80): 9 of 10
survivor count (dose: 24.0 mg/kg/injection, schedule: Q01DX009 (ip), vehicle: saline with Tween-80): 9 of 10
